In PubChem BioAssay AID493014 (National Center for Advancing Translational Sciences (NCATS), 2011):
Among all 340,000 compounds or so, about 170 (0.05%) were called active. Inconclusive means that the source gave no clear call. Such entries were picked first, then a sample of the others. Calls come from the whole dose curve; as a rule, active = well fitted inhibition curve with a large enough effect in the signal ratio, with a control signal flat (not every such curve was filed as active); inconclusive = small, poorly fitted or top-dose-only effect, or effect the other way, or a change in a side signal; inactive = flat fitted curve, though single readings scatter; the % refers to the signal ratio. A potency beside an inconclusive call is a rough fit, not a confirmed value.

Test: qHTS Assay to Find Inhibitors of Chronic Active B-Cell Receptor Signaling;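 for activity change, negative = inhibition: plate controls were basal doxycycline-induced cells for no effect and cells given 10 µM MG132 for full effect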
Details: ABC-DLBCL IkBa-CBG/CBR reporter, luminescence ratio (green luciferase fused to IkBa over red control in TMD8 lymphoma cells), 4 h; activity change, negative = inhibition: at 46.1 µM (top of the series)
Outline: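 Compounds up to 46 uM were incubated four hours with TMD8 cells whose green CBG68 luciferase is fused to IkappaBalpha; red CBR luminescence normalised the signal, and concentration-effect curves were fitted to fusion, red and ratio data.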
Potency is the fitted concentration of half-maximal effect.

Row | Structure (SMILES) | activity change, negative = inhibition | Potency
1 | CCSc1nnc(NS(=O)(=O)c2ccc(OC)cc2)s1 | inactive: -1.7% | 
2 | COc1ccccc1NC(=O)c1c(O)c2ccccc2[nH]c1=O | inconclusive: -12.1% | 
3 | CCOC(=O)c1ccc(NC(=O)c2cc(OC)c(OC)c(OC)c2Br)cc1 | inconclusive: 7.54% | 
4 | CCOc1ccc(CCNC(=O)CS(=O)(=O)Cc2nc(-c3cccc(OC)c3)oc2C)cc1 |  | inconclusive: 0.112 µM [falling, full curve, poor fit]
5 | CCCn1nnc(NC(=O)c2cc3ccccc3o2)n1 |  | inconclusive: 18.4 µM [falling, single point]
6 | O=C(CCl)NCc1c(Cl)cccc1-n1cccc1 |  | inconclusive: 17.8 µM [falling, single point]
7 | Oc1ccc(/C=N/N(Cc2ccccc2)c2ccccc2)c(O)c1O | inactive: 4.38% | 
8 | CC(C)(C)c1ccc(OCc2ccc(C(=O)N3CCOCC3)o2)cc1 | inconclusive: -5.99% | 
9 | CC1=NN(C(N)=S)C(=O)C1N=Nc1ccccc1C (stereo not given) | inactive: 23.2% | 
10 | O=C(CSc1ccccc1)Nc1ccc2c(c1)OCO2 | inconclusive: -9.61% | 
11 | COc1ccc(OC)c(C(=O)NC2CC(C)(C)Cc3c2cnn3-c2ccccc2)c1 (stereo not given) | inconclusive: 13.6% | 
12 | Cc1ccc(-n2cc(CN(C)Cc3ncc[nH]3)c(-c3cccc(C)c3)n2)cc1 |  | inconclusive: 17.8 µM [falling, partial curve, poor fit]
13 | COc1ccc(C(=O)Nc2ccc(S(=O)(=O)Nc3nccc(C)n3)cc2)cc1OC |  | inconclusive: 0.92 µM [falling, full curve, poor fit]
14 | CC1CC(C)(C)CC2(C1)NC(=O)N(CC(=O)N1CCN(Cc3ccc(C#N)cc3)CC1)C2=O (stereo not given) | inconclusive: -3.8% | 
15 | O=C(CSCC(=O)N1CCCc2ccccc21)Nc1nc(-c2ccccc2)cs1 | inactive: -16.8% | 
16 | CC(=O)c1c(N2CCN(c3cccc(Cl)c3)CC2)nc(=S)n(-c2ccccc2)c1C | inactive: 1.67% | 
17 | O=C(COC(=O)c1ccccc1F)c1ccc(-n2nncc2-c2ccco2)cc1 | inconclusive: -1.99% | 
18 | CCCc1cc(-c2n[nH]c(=S)n2CC(C)C)cs1 | inconclusive: -0.453% | 
19 | Oc1ccc(NC(=S)Nc2ccc(F)cc2)cc1 | inactive: 0.0121% | 
20 | CC(C)(C)c1ccc(Oc2ccc(NC(=O)c3ccco3)cn2)cc1 |  | inconclusive: 35.5 µM [falling, single point]
21 | CCCC1=[N+](CC(=O)c2ccc(Br)cc2)CCn2cccc21 | inconclusive: 21.4% | 
22 | Cc1ccc(-n2[nH]c3c4c(ccc3c2=O)C(=O)c2ccccc2C4=O)cc1 | inactive: -4.53% | 
23 | N#CCC(=O)Nc1ccc(C(=O)NNC(=O)CCN2CCN(c3ccccc3)CC2)cc1 | inactive: -0.56% | 
24 | c1ccc(CSc2ccc(-c3cccs3)nn2)cc1 | inconclusive: -24.3% | 
25 | Cc1cccc(C)c1OCC(=O)Nc1cccc(C(=O)O)c1 |  | inconclusive: 25.1 µM [falling, single point]
26 | COc1cc(SC)ccc1C(=O)Nc1nccs1 |  | inconclusive: 22.4 µM [falling, partial curve]
27 | NS(=O)(=O)c1ccc(CCNC(=O)CNC(=O)c2ccc(Oc3ccccc3)cc2)cc1 | inactive: -1.48% | 

4 structures already listed, sorted by molar mass, largest number first.
Row | Structure (SMILES) | activity change, negative = inhibition | Potency
13 | COc1ccc(C(=O)Nc2ccc(S(=O)(=O)Nc3nccc(C)n3)cc2)cc1OC |  | inconclusive: 0.92 µM [falling, full curve, poor fit]
15 | O=C(CSCC(=O)N1CCCc2ccccc21)Nc1nc(-c2ccccc2)cs1 | inactive: -16.8% | 
1 | CCSc1nnc(NS(=O)(=O)c2ccc(OC)cc2)s1 | inactive: -1.7% | 
9 | CC1=NN(C(N)=S)C(=O)C1N=Nc1ccccc1C (stereo not given) | inactive: 23.2% | 

(continued)

Row | Structure (SMILES) | activity change, negative = inhibition | Potency
28 | Cc1ccc(-c2nnc(SCCC(=O)N3CCOCC3)o2)cc1 |  | inconclusive: 17.8 µM [falling, partial curve]
29 | O=C(CCc1ccccc1)Nc1ccc2c(c1)C(=O)OC2 | inconclusive: -0.16% | 
30 | COc1ccc(C(c2nnnn2C(C)(C)C)N2CCN(c3nc4ccccc4s3)CC2)cc1 (stereo not given) | inactive: -0.189% | 
31 | Fc1ccc(F)c(NC(=S)NCCc2ccccc2)c1 |  | inconclusive: 17.8 µM [falling, partial curve, poor fit]
32 | COc1ccc(CCNC(=O)c2cnn3c(C(F)F)cc(C)nc23)cc1OC | inconclusive: -16.3% | 
33 | Cc1ccc2nc(NC(=O)c3ccc(NS(=O)(=O)c4cccs4)cc3)sc2c1 |  | inconclusive: 10.3 µM [falling, partial curve]
34 | Cc1nc2cc(C(=O)OCC(=O)NC3CCS(=O)(=O)C3)ccc2n1-c1ccccc1 (stereo not given) | inactive: 9.83% | 
35 | Cc1ccc(OCCCNC2CCCC2)cc1 | inactive: -2.96% | 
36 | CS(=O)(=O)NCCSCc1ccc(Cl)cc1 | inconclusive: 8.7% | 
37 | NS(=O)(=O)c1ccc(Nc2nc(-c3cccnc3)cs2)cc1 | inactive: 1.23% | 
38 | COc1ccc2cc(S(=O)(=O)N3CCOCC3)ccc2c1 | inconclusive: 9.97% | 
39 | COc1ccc(-n2ncc(N(C)n3cccc3)c(Cl)c2=O)cc1 | inconclusive: -2.27% | 
40 | O=C(O)c1c(Cl)nc2ccccn12 | inconclusive: 6.08% | 
41 | CC(C)OC(=O)CSc1nnc2c(n1)[nH]c1ccc(F)cc12 | inconclusive: -10.1% | 
42 | CCN(C(=O)c1cn(C)c(=O)c2ccccc12)c1ccccc1F | inactive: 2.45% | 
43 | COc1ccc(CCNC(=O)CSc2nc(-c3ccco3)cc(C(F)(F)F)n2)cc1OC | inconclusive: -3.4% | 
44 | O=S(=O)(c1cccc(S(=O)(=O)N2CCOCC2)c1)N1CCCCC1 | inconclusive: 26.5% | 
45 | CCOC(=O)N1CCN(S(=O)(=O)c2ccc(C(=O)Nc3nnc(C)o3)cc2)CC1 | inactive: -0.0886% | 
46 | Cc1ccsc1/C=C1\SC(=S)N(CC2CCCO2)C1=O (stereo not given) | inconclusive: 13.2% | 
47 | O=S(=O)(CCN1CCOCC1)c1ccccc1 | inactive: 0.0873% | 
48 | O=C1NC(Cc2ccc(O)cc2)c2nc3ccc(Cl)cc3c(=O)n2-c2ccccc21 (stereo not given) | inactive: -3.14% | 
49 | CCN1C(=NCCCCO)N[C@@H](c2cccc(C(F)(F)F)c2)C(C(=O)OC)=C1C | inconclusive: -1.87% | 
50 | Cn1c(NC(=O)c2ccc(Cl)s2)cc(=O)n(C)c1=O | inconclusive: 16.8% | 
51 | COc1ccccc1C1CN(c2ccc(F)cc2F)N=C1c1cccs1 (stereo not given) |  | inconclusive: 14.6 µM [rising, partial curve, poor fit]
52 | COc1cccc(CN(Cc2ccccc2F)S(=O)(=O)c2ccc(S(=O)(=O)NCc3ccccc3)cc2)c1 | inconclusive: 0.0998% | 
53 | CCCCNc1nc2ccccc2n1CC(=O)Nc1ccc2c(c1)OCCO2 | inconclusive: -19.4% | 
54 | COc1ccc(NC(=O)c2c([N+](=O)[O-])c(C(C)(C)C)nn2C)cc1 | inactive: 1.32% | 

Row | Structure (SMILES) | activity change, negative = inhibition | Potency
55 | CC1=C(C(=O)OCc2ccccc2)C(c2cccc([N+](=O)[O-])c2)NC(=O)N1C (stereo not given) |  | inconclusive: 17.8 µM [falling, single point]
56 | Cc1ccc(CN2CCN(Cc3cn[nH]c3C3CCCCC3)CC2CCO)cc1 (stereo not given) |  | inconclusive: 15.8 µM [falling, partial curve, poor fit]
57 | Cc1nn(C)c(C(=O)N/N=C/c2cccc(Oc3ccccc3)c2)c1Br |  | inconclusive: 10 µM [falling, partial curve, poor fit]
58 | COc1ccc(-n2c(SC)nnc2-c2c[nH]c3ccccc23)cc1 | inconclusive: -10.2% | 
59 | CC(C)(C)c1[nH]nc2c1C(c1ccc(OC(=O)c3ccco3)cc1)C(C#N)=C(N)O2 (stereo not given) | inconclusive: -1.82% | 
60 | CCOC(=O)/C(C(=O)Nc1ccc(Br)cc1)=C1/NC(C)(C)Cc2ccccc21 | inconclusive: 5.75% | 
61 | CC(C)(CNC(=O)CO/N=C1/C=C2CCC3C(C(O)C[C@@]4(C)C3CC[C@]4(O)C(=O)CO)[C@@]2(C)CC1)C(O)C(=O)O (stereo not given in full) | inconclusive: -10.4% | 
62 | COc1cccc(C(=O)OCC(=O)NCCCc2ccccc2)c1 |  | inconclusive: 0.794 µM [falling, full curve, poor fit]
63 | O=C(NCc1ccccc1)C1c2ccccc2Oc2ccccc21 |  | inconclusive: 14.1 µM [falling, partial curve, poor fit]
64 | CCCC(=O)Nc1ncnc2c1ncn2[C@@H]1O[C@@H]2COP(=O)(O)O[C@H]2[C@H]1OC(=O)CCC | inconclusive: 4.04% | 
65 | N/C(=N\S(=O)(=O)c1cc(C(F)(F)F)cc(C(F)(F)F)c1)c1ccc(Cl)cc1 | inactive: 10.4% | 
66 | Nc1ccc(C(=O)N2CCN(S(=O)(=O)/C=C/c3ccccc3)CC2)cc1[N+](=O)[O-] | inconclusive: -13.6% | 
67 | O=C(COc1cccnc1[N+](=O)[O-])N1CCN(S(=O)(=O)c2ccccc2)CC1 |  | inconclusive: 20.6 µM [falling, partial curve, poor fit]
68 | CCn1c(O)c(/C=C2\C=Nc3ccccc32)sc1=Nc1ccccc1 | inconclusive: 14.3% | 
69 | O=C(COc1ccc(Cl)cc1)N1CCN(S(=O)(=O)c2ccccc2)CC1 | inconclusive: -6.66% | 
70 | C[C@@]12C(=O)Nc3ccc(Br)cc3C(=O)N1[C@H]1c3cc(Cl)ccc3OC[C@@H]1[C@@H]2c1ccccc1 | inconclusive: 11.3% | 
71 | OCCNc1nc(-c2ccccc2)nc2c1oc1ccccc12 | inconclusive: 23% | 
72 | Cc1sc2nc3n(c(=O)c2c1C)CCCCC3 | inconclusive: 1.58% | 
73 | CN1C(=O)c2cccc(NC(=O)CCc3ccccc3)c2C1=O | inconclusive: 12.7% | 
74 | CC(=O)Nc1ccc(NC(=O)c2sc(-c3ccccc3)nc2C)cc1 | inconclusive: 6.66% | 
75 | Clc1ccc(-c2cc(-c3nnc4n3CCCCC4)c3ccccc3n2)cc1 | inconclusive: 8.9% | 
76 | C#CCOc1c(Cl)cc(/C=N/NC(N)=S)cc1OCC | inconclusive: 2.65% | 
77 | O=C(Cn1nnc(-c2ccccc2)n1)NNC(=O)c1cccc([N+](=O)[O-])c1 |  | inconclusive: 0.2 µM [falling, full curve, poor fit]
78 | N#Cc1c(N)nc2c(c1N)CC(=O)N2c1ccccc1-c1ccccc1 |  | inconclusive: 15.8 µM [falling, partial curve]
79 | Cc1ccccc1OCC(=O)N/N=C/c1cc2ccccc2nc1Cl | inconclusive: 9.29% | 
80 | Cc1csc2ncc(C(=O)NCc3ccccc3Cl)c(=O)n12 | inactive: 4.63% | 
